Here are results for 7 compounds from PubChem BioAssay AID258 (DTP/NCI, 2004).

The list shows only some results of the screen, not a fair sample: it gathers tests that were run many times, whatever their T/C, doses with no T/C, and many T/C values between a quarter and a half above the control. Further doses and runs are listed elsewhere. T/C gives the treated animals as a percentage of the vehicle group. Some doses have a count of surviving animals in place of a T/C: the source files T/C as zero there, which appears to mark a toxic dose or a test without result, not a measured value. Some survivor counts are full or nearly so, which does not show that the dose was tolerated: survival well below the control is almost never listed, so the zero probably covers shortened survival too. Counts of survivors are from the toxicity check (mostly the fifth day) where no day follows; animals may have died later. Schedules are NCI's codes, read here as Q, the interval in days (D) or hours (H), X, the number of doses. Some schedule codes hold Z or #, which are not explained here. Where survival is the endpoint, this PubChem deposit counts one and a half times the control or more as active, and values a quarter to a half above the control carry no call in these data; other NCI protocols may use other cut-offs. Some T/C values are followed by the survivors on the day toxicity was checked, most often the fifth; where none is given, no animal had died by that day. Some entries were tested several times; the values are given in rising order. Marks such as (2×) count equal records among those shown.

In the test the test system is CD2F1 mice, L1210 leukemia sc, survival T/C. In words: NCI In Vivo Anticancer Drug Screen. Data for tumor model L1210 Leukemia (subcutaneous) in CD2F1 (CDF1) mice. The note with it: T/C endpoint: median survival time, higher T/C = longer survival. The method in brief: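 Antitumor activity is scored in tumor-bearing mice by comparing survival or tumor size of treated animals against vehicle-treated controls, reported as T/C.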

Where [1] appears, read: dose: 5.0 mg/kg/injection, schedule: Q01DX Z (sc), vehicle: methylcellulose (MC).
Where [2] appears, read: dose: 8.4 mg/kg/injection, schedule: Q01DX Z (sc), vehicle: methylcellulose (MC).
[3] abbreviates: dose: 14.0 mg/kg/injection, schedule: Q01DX Z (sc), vehicle: methylcellulose (MC).
[4] abbreviates: dose: 39.0 mg/kg/injection, schedule: Q01DX Z (sc), vehicle: methylcellulose (MC).
Where [5] appears, read: dose: 23.0 mg/kg/injection, schedule: Q01DX Z (sc), vehicle: other.
[6] abbreviates: dose: 39.0 mg/kg/injection, schedule: Q01DX Z (sc), vehicle: other.

As for `CC(C)CCNc1ncnc2c1cnn2C`, where the note is “dose: 300.0 mg/kg/injection, schedule: Q01DX Z (sc), vehicle: water”, the survivor count is 1 of 10.

On to `Cc1c(-c2ccc(-c3ccccc3F)cc2)nc2ccc(F)cc2c1C(=O)O`, for which the T/C reads like this: (dose: 3.12 mg/kg/injection, schedule: Q01DX009 (ip), vehicle: saline) 127 % of control; (dose: 6.25 mg/kg/injection, schedule: Q01DX009 (ip), vehicle: saline) 146 % of control. Further, the survivor count (dose: 100.0 mg/kg/injection, schedule: Q01DX009 (ip), vehicle: saline) is reported as 10 of 10.

Turning to `CC(=O)NNC(=O)c1ccccn1`, the survivor count reads like this: (dose: 12.5 mg/kg/injection, schedule: Q01DX009 (sc), vehicle: saline) 3 of 10; (dose: 25.0 mg/kg/injection, schedule: Q01DX009 (sc), vehicle: saline) 2 of 10; (dose: 400.0 mg/kg/injection, schedule: Q01DX009 (ip), vehicle: saline) 1 of 10; (dose: 400.0 mg/kg/injection, schedule: Q01DX009 (sc), vehicle: saline) 3 of 10.

As for `COc1cccc2c1C(=O)c1c(O)c3c(c(O)c1C2=O)C[C@@](O)(C(C)=O)C[C@@H]3OC1CC(N)C(O)C(C)O1` (some centres undefined), the survivor count (dose: 3.0 mg/kg/injection, schedule: Q01DX Z (sc), vehicle: saline) is listed as 3 of 8; the survivor count (dose: 3.0 mg/kg/injection, schedule: Q01DX Z (sc), vehicle: water) was 3 of 8; the survivor count (dose: 4.0 mg/kg/injection, schedule: Q01DX009 (ip), vehicle: saline) was 9 of 10; the survivor count (dose: 4.0 mg/kg/injection, schedule: Q01DX009 (sc), vehicle: saline) is 2 of 10; the survivor count (dose: 5.0 mg/kg/injection, schedule: Q01DX Z (sc), vehicle: saline) is given as 5 of 8; the survivor count (dose: 5.0 mg/kg/injection, schedule: Q01DX Z (sc), vehicle: water) was 3 of 8. In addition, the survivor count reads like this: (dose: 8.0 mg/kg/injection, schedule: Q01DX009 (sc), vehicle: saline) 5 of 10; (dose: 8.4 mg/kg/injection, schedule: Q01DX Z (sc), vehicle: saline) 5 of 8; (dose: 8.4 mg/kg/injection, schedule: Q01DX Z (sc), vehicle: water) 4 of 8; (dose: 32.0 mg/kg/injection, schedule: Q01DX009 (sc), vehicle: saline) 6 of 10. In addition, the T/C reads like this: (dose: 14.0 mg/kg/injection, schedule: Q01DX Z (sc), vehicle: saline) 130 % of control [7 of 8 alive]; (dose: 14.0 mg/kg/injection, schedule: Q01DX Z (sc), vehicle: water) 125 % of control [6 of 8 alive]; (dose: 23.0 mg/kg/injection, schedule: Q01DX Z (sc), vehicle: saline) 125 % of control [7 of 8 alive].

For the compound `CSc1nc2[nH]cnc(=S)c2[nH]1`, where the note is “dose: 500.0 mg/kg/injection, schedule: Q01DX Z (sc), vehicle: methylcellulose (MC)”, the survivor count is recorded as 2 of 10.

As to `Nc1cc(C(=O)Nc2ccc(C3=NCCN3)cc2)ccc1C(=O)Nc1ccc(C2=NCCN2)cc1`, the survivor count (dose: 3.0 mg/kg/injection, schedule: Q01DX Z (sc), vehicle: methylcellulose (MC)) is 1 of 10; the survivor count under setting [1] is recorded as 4 of 10; the survivor count under setting [2] was 2 of 10; the survivor count under setting [3] is listed as 3 of 10; the survivor count (dose: 23.0 mg/kg/injection, schedule: Q01DX Z (sc), vehicle: methylcellulose (MC)) is 5 of 10; the survivor count under setting [4] is reported as 3 of 10.

Consider `S=c1nc[nH]c2nc[nH]c12`, for which the survivor count by setting is: under setting [1], 3 of 10; under setting [2], 5 of 10; under setting [3], 2 of 10; under setting [5], 4 of 10; under setting [4], 5 of 10; under setting [6], 4 of 10. Moreover, the survivor count (dose: 300.0 mg/kg/injection, schedule: Q01DX Z (sc), vehicle: other) was 4 of 10 and the survivor count (dose: 300.0 mg/kg/injection, schedule: Q07DX Z (sc), vehicle: other) is 4 of 8. Besides, the T/C runs as follows: (dose: 8.4 mg/kg/injection, schedule: Q## X Z (sc), vehicle: other) 138 % of control; (dose: 10.0 mg/kg/injection, schedule: Q01DX009 (sc), vehicle: saline with Tween-80) 142 % of control; under setting [5], 100, 105, 105 % of control [7 of 8 alive]; under setting [4], 136 % of control; under setting [6], 100 (2×) and 105 % of control; (dose: 39.0 mg/kg/injection, schedule: Q## X Z (sc), vehicle: other) 144 % of control. In addition, the T/C by setting is: (dose: 65.0 mg/kg/injection, schedule: Q01DX Z (ip), vehicle: other) 145 % of control; (dose: 65.0 mg/kg/injection, schedule: Q01DX Z (oral), vehicle: other) 125 % of control; (dose: 65.0 mg/kg/injection, schedule: Q01DX Z (sc), vehicle: methylcellulose (MC)) 131 % of control; (dose: 65.0 mg/kg/injection, schedule: Q01DX Z (sc), vehicle: other) 120 [7 of 10 alive], 130, 154, 166 % of control; (dose: 108.0 mg/kg/injection, schedule: Q01DX Z (sc), vehicle: other) 163, 170 [8 of 10 alive], 177, 180 % of control; (dose: 108.0 mg/kg/injection, schedule: Q#A X Z (sc), vehicle: other) 144 % of control. In addition, the T/C runs as follows: (dose: 180.0 mg/kg/injection, schedule: Q01DX Z (ip), vehicle: other) 130 % of control; (dose: 180.0 mg/kg/injection, schedule: Q01DX Z (oral), vehicle: other) 145 % of control; (dose: 180.0 mg/kg/injection, schedule: Q01DX Z (sc), vehicle: methylcellulose (MC)) 140 % of control; (dose: 180.0 mg/kg/injection, schedule: Q01DX Z (sc), vehicle: other) 122, 130, 145 [9 of 10 alive], 180 % of control [9 of 10 alive]; (dose: 200.0 mg/kg/injection, schedule: Q01DX Z (sc), vehicle: other) 137 % of control [7 of 8 alive]; (dose: 300.0 mg/kg/injection, schedule: Q01DX Z (sc), vehicle: methylcellulose (MC)) 130 % of control.
